58 compounds from PubChem BioAssay AID2685 (National Center for Advancing Translational Sciences (NCATS), 2010) can be followed below.

This test is described as follows: qHTS Assay for Lipid Storage Modulators in Drosophila S3 Cells.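 On cell number change: cells counted by Cell Tracker Red CMTPX staining in the red channel.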 To be noted: BODIPY lipid droplet fluorescence, 18-24 h; for cell number change: measured here: cell count max response, cells fed with added oleic acid. The method, boiled down: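 Drosophila S3 cells loaded with oleic acid (400 uM, as added) and compounds at several concentrations; lipid droplets imaged by 488-nm laser-scanning cytometry, 500–530 nm intensity and object ratio to cell channel. Percent activity normalized to 20 uM Triacsin C.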

Where [1] appears, read: measured here: lipid fluorescence (Fed channel) AC50, cells fed with added oleic acid.
The mark [2] stands for this setting: measured here: cell number channel AC50, cells fed with added oleic acid.

The list shows a part of the results. The main result of the screen is listed elsewhere. These columns were measured beside it and carry no call. Most of these compounds were active or inconclusive in the main read-out, so they are no random draw. The note in brackets gives the kind of curve behind each potency; many fits are weak. Where a SMILES comes first, the peptide text is derived from it. [ ]: non-standard residue; d: D form. Inp = O=C(O)C1CCNCC1

Take `CCCN(CC(=O)Nc1ccccc1C)C(=O)c1ccc(-c2ccc([N+](=O)[O-])cc2)o1`: the AC50 under setting [1] was 32.6 µM [falling, single point].
`O=C(NC(=S)N1CCCCC1c1cccnc1)c1ccc(F)cc1` (configuration not stated): the cell number change was determined as 19.3%. Moreover, the AC50 under setting [1] was 0.58 µM [rising, single point].
Consider `Cc1ccc(C)c(N(C)C(=O)c2ccc3c(=O)n4c(nc3c2)CCCCC4)c1`, for which the AC50 is 0.517 µM [falling, full curve, poor fit] under setting [2] and 3.66 µM [falling, partial curve] under setting [1].
As for `CCC(C)c1ccc(NC(=O)C2=CC=CN3CCS(=O)(=O)N=C23)cc1` (configuration not stated), the cell number change is -3.24%. In addition, the AC50 under setting [1] was 6.51 µM [rising, single point].
For the compound `CCOC(=O)Nc1ccc(S(=O)(=O)NCc2ccccc2)cc1`, the cell number change is 52.6%. For the same compound, the AC50 under setting [2] was 32.6 µM [rising, single point].
As to `Cc1cccc(OCCOC(=O)c2c(-c3ccccc3)noc2C)c1`, the cell number change was -5.26%. For the same compound, under setting [1], the AC50 is 35.5 µM [falling, single point].
As to `Cc1ccc(S(=O)(=O)NCC(=O)NC2CCCC2)cc1`, the cell number change came to 54.3%. Under setting [2], the AC50 is 29.1 µM [rising, single point]. Besides, the concentration at half-maximal activity (AC50) under setting [1] was 6.51 µM [falling, single point].
On to `CCCCN1CC(C(=O)NCc2ccc(C)cc2)CC1=O` (configuration not stated), for which the cell number change was found to be 8.27%. The concentration at half-maximal activity (AC50) under setting [1] was 0.146 µM [falling, full curve, poor fit].
On to `N[C@@H](Cc1ccccc1)C(=O)N1CCC(C(=O)NCC(=O)NCC(=O)O)CC1` (H-F[Inp]GG-OH), for which the cell number change was found to be 2.7%. Besides, the AC50 under setting [1] was 0.58 µM [rising, single point].
As for `CC1CCN(c2c([N+](=O)[O-])nn(-c3ccc4c(c3)OCCO4)[n+]2[O-])CC1`, the cell number change came to 58.7%. Under setting [2], the AC50 was 9.2 µM [rising, partial curve].
Turning to `CC(C)(C)OC(=O)N1CCN(c2ccc(NC(=O)c3ccco3)cc2)CC1`, the AC50 under setting [1] is 3.66 µM [falling, partial curve].
With `O=C(c1cccc(S(=O)(=O)N2CCCC2)c1)N1CCN(c2ccccc2)CC1`, under setting [1], the AC50 is 0.82 µM [falling, full curve, poor fit].
Take `CCCCCCCCCCn1ccc(=N)cc1`: the cell number change was -66.2%. Moreover, the AC50 under setting [2] was 1.46 µM [falling, partial curve].
On to `Cc1cc(O)ccc1NC(=O)c1ccccc1`, for which the cell number change turned out to be 10.9%.
For `Cc1cc(C)nc(N2CCN(C(=O)c3ccc(S(=O)(=O)N4CCCCCC4)cc3)CC2)n1`, the AC50 under setting [2] was 0.58 µM [rising, single point].
As to `CC(C)C(OC(=O)c1ccccc1)c1nccc2ccccc12` (configuration not stated), the cell number change was 38.6%. Besides, the AC50 under setting [2] was 9.2 µM [rising, partial curve]. In addition, under setting [1], the AC50 is 14.6 µM [rising, partial curve, poor fit].
In the case of `CCOc1ccc(OCCOc2ccc(/C=C/C(=O)O)cc2OCC)cc1`, the cell number change was 12.1%. For the same compound, under setting [1], the AC50 is 0.116 µM [rising, single point].
`CCN(CC(=O)NCc1cccs1)S(=O)(=O)c1cc(NC(C)=O)ccc1OC`: the cell number change was 17.7%. Also, the AC50 under setting [1] was 32.6 µM [rising, partial curve, poor fit].
Regarding `CCC1CCCCN1CCCNC(=O)CN1C(=O)COc2ccc(S(=O)(=O)N3CCOCC3)cc21` (configuration not stated), the cell number change is -30.4%. In addition, the AC50 under setting [2] was 32.6 µM [falling, single point].
For the compound `CCOC(=O)c1cc2c(=O)n3ccccc3nc2n(CC2CCCO2)c1=NC(C)=O` (configuration not stated), the cell number change stood at 16%. For the same compound, under setting [2], the concentration at half-maximal activity (AC50) is 0.92 µM [rising, partial curve]. Moreover, the AC50 under setting [1] was 1.46 µM [rising, partial curve].
Turning to `O=S(=O)(NCC(c1cccnc1)N1CCN(c2ccccc2)CC1)c1cc(F)ccc1F` (configuration not stated), the AC50 is 0.461 µM [rising, full curve] under setting [2] and 0.366 µM [rising, full curve] under setting [1].
On to `Cc1ccc(C(=O)O/N=C(\N)c2ccccn2)cc1Cl`, for which the cell number change is 2.05%.
`O=C(NCCc1ccccc1)c1ccc2c(c1)OCO2`: the cell number change was 7.89%. For the same compound, under setting [1], the AC50 is 2.51 µM [rising, full curve, poor fit].
On to `CCOC(=O)CSc1nnc(-c2ccc(S(=O)(=O)N3CCOCC3)cc2)n1-c1ccccc1`, for which the cell number change was -108%. In addition, under setting [2], the AC50 is 23.1 µM [falling, single point].
`C=C(C)CNC(=S)NNC(=O)c1ccncc1`: the cell number change amounted to 45.3%. Moreover, under setting [2], the AC50 is 29.1 µM [rising, single point]. In addition, under setting [1], the AC50 was 18.4 µM [rising, single point].
Consider `CC(=O)Nc1ccc(C(=O)N(C)C(C(=O)Nc2ccc(C)cc2)c2ccccn2)cc1` (configuration not stated), for which the AC50 under setting [1] is 14.6 µM [rising, partial curve, poor fit].
As for `C=CCn1c(SCC(=O)Nc2ncc(Cc3cc(C(F)(F)F)ccc3Cl)s2)nnc1-c1ccncc1`, the cell number change came to 8.06%. Moreover, the AC50 under setting [1] was 32.6 µM [rising, single point].
Consider `O=C(c1ccccc1)n1c(=O)cc[nH]c1=O`, for which the cell number change was 31.2%. Moreover, the AC50 under setting [2] was 0.164 µM [rising, full curve, poor fit]. Also, under setting [1], the AC50 was 2.59 µM [rising, partial curve, poor fit].
Take `CC1CCCCN1c1ccc(N)cc1C(N)=O` (configuration not stated): the cell number change was -49.9%. Further, under setting [2], the AC50 is 20.6 µM [falling, single point]. Under setting [1], the AC50 is 14.6 µM [falling, partial curve].
As to `CN1CCN(c2ccc(NC(=S)NC(=O)c3cccc4c(Cl)cccc34)cc2)CC1`, the cell number change amounted to 11%. Also, the AC50 under setting [2] was 0.731 µM [rising, partial curve]. Moreover, the AC50 under setting [1] is 0.411 µM [rising, full curve].
As for `CN(C)S(=O)(=O)c1ccc(C(=O)NCc2nnc(SCC(=O)c3ccccc3)o2)cc1`, the cell number change is -13%. Moreover, under setting [1], the AC50 was 15.8 µM [falling, partial curve, poor fit].
As to `Cc1cc(C(=O)OCC(=O)NCc2ccc(Cl)cc2)c(C)o1`, the cell number change was 20.4%.
Consider `COc1ccc(C(=O)NCc2cccs2)cc1S(=O)(=O)N1CCOCC1`, for which the AC50 under setting [2] was 1.84 µM [rising, partial curve, poor fit].
Regarding `COc1ccc(N2CC(NC(=O)c3ccc4ccccc4c3)CC2=O)cc1OC` (configuration not stated), the concentration at half-maximal activity (AC50) under setting [2] was 4.61 µM [rising, single point] and the AC50 under setting [1] is 1.16 µM [rising, full curve].
For the compound `COc1cc(C2C(C(=O)c3ccc(C)o3)=C(O)C(=O)N2Cc2cccnc2)ccc1O` (configuration not stated), the cell number change was found to be 4.1%. Further, the AC50 under setting [2] was 6.51 µM [falling, single point]. Also, the AC50 under setting [1] is 5.8 µM [falling, single point].
With `COc1ccc(C2=NN(CCC(=O)NC3CCCCCC3)C(=O)CC2)cc1`, the cell number change is -14.1%. Besides, under setting [1], the AC50 was 16.4 µM [rising, single point].
Consider `Cc1cccc(C(=O)N[C@H](C(=O)Nc2nc3ccc(S(C)(=O)=O)cc3s2)C(C)C)c1`, for which the cell number change was determined as 4.23%. For the same compound, under setting [1], the AC50 was 0.00517 µM [falling, full curve].
In the case of `CCOc1ccc2nc(NC(=O)C3CCN(C(=O)c4ccco4)CC3)sc2c1`, the cell number change is 18.3%.
`O=C(c1ccccc1)c1ccc2nc(-c3ccc(NC(=O)c4ccccc4Br)cc3)[nH]c2c1`: the cell number change is -55.5%. Also, the AC50 under setting [2] was 13 µM [falling, partial curve]. Moreover, the AC50 under setting [1] is 10.3 µM [falling, partial curve].
In the case of `Cc1cc(=O)[nH]c(N/N=C/c2ccc(-c3ccc([N+](=O)[O-])cc3)o2)n1`, the cell number change was -9.52%. In addition, the AC50 under setting [2] was 1.16 µM [rising, partial curve].
Regarding `COc1cccc(C(=O)N2CCCC(c3nc(-c4cccs4)no3)C2)c1` (configuration not stated), the cell number change was 122%. The AC50 under setting [2] is 20.6 µM [rising, single point].
As for `CC(C)(C)c1ccc(S(=O)(=O)N2CCN(C(=O)C3CCC3)CC2)cc1`, the cell number change is 29.4%. For the same compound, the AC50 under setting [2] is 1.64 µM [rising, full curve, poor fit]. Under setting [1], the AC50 is 3.26 µM [rising, partial curve].
For `OCCNc1nc(SCc2ccccc2)nc2sc3c(c12)CCC3`, the cell number change was determined as 4.46%.
Regarding `CC1(C)CC(=O)C2=C(C1)OC(c1cccs1)C(C#N)=C2N` (configuration not stated), the AC50 under setting [2] is 0.082 µM [falling, full curve, poor fit].
Turning to `O=C(CNc1cccc(S(=O)(=O)N2CCCCCC2)c1)Nc1cccc([N+](=O)[O-])c1`, the AC50 under setting [1] was 1.84 µM [falling, partial curve].
Take `COc1ccccc1-c1cc(C(F)(F)F)nc(S(C)(=O)=O)n1`: the cell number change is -40.5%. In addition, the AC50 under setting [2] was 0.517 µM [falling, partial curve]. Also, the AC50 under setting [1] was 18.4 µM [falling, partial curve].
As to `Cn1cnnc1SCC(=O)Nc1ccc(S(N)(=O)=O)cc1`, the cell number change was 6.3%. Moreover, the AC50 under setting [1] was 29.1 µM [rising, single point].
Turning to `COc1cccc(NC(=S)N2C3CCCC2CC(NC(=O)C2CC2)C3)c1` (configuration not stated), the cell number change turned out to be 10.8%.
In the case of `Cc1ccc(-c2nn(Cc3ccccc3)cc2/C=C/C(=O)O)cc1C`, the cell number change was determined as 109%. In addition, under setting [2], the AC50 is 18.4 µM [rising, single point]. In addition, the half-maximal activity concentration (AC50) under setting [1] is 29.1 µM [rising, single point].
`O=C1c2cccc3cccc(c23)N1Cc1ccc(F)cc1`: the cell number change was -16.8%.
For `CC1CCN(S(=O)(=O)c2ccc(NC(=O)Cc3ccccc3)cc2)CC1`, the cell number change was -2.48%. Further, the AC50 under setting [2] was 2.06 µM [rising, partial curve].
Regarding `O=C(O)CN1CCN(Cc2ccccc2F)C1=O`, the cell number change was -62.2%. Further, the AC50 under setting [2] was 29.1 µM [falling, single point]. Under setting [1], the AC50 was 29.1 µM [falling, single point].
On to `COc1cc(NC(=O)C(F)(F)F)cc(OC)c1`, for which the cell number change is -2.86%.
`COc1cccc(OCCCOc2ccc([N+](=O)[O-])cc2Cl)c1`: the cell number change was found to be 41.1%. Besides, the AC50 under setting [2] was 29.1 µM [rising, single point].
`NC(=O)C1(N2CCCCC2)CCN(C(=O)c2cccn3c(=O)c4cc(Cl)ccc4nc23)CC1`: the AC50 under setting [2] was 0.731 µM [rising, single point].
With `Cc1ccc2nc(NC(=O)CN3C(=O)C4CC=CCC4C3=O)sc2c1` (configuration not stated), the cell number change was -27%.
`O=C(Nc1cccc(Br)c1)c1ccc(CN2CCc3ccccc3C2)cc1`: the cell number change is -3%. Besides, the AC50 under setting [2] is 6.51 µM [falling, single point]. For the same compound, the AC50 under setting [1] was 4.11 µM [falling, single point].
`CC(NC(=O)CNC(=O)C1O[C@@H]2OC(C)(C)O[C@@H]2[C@H]2OC(C)(C)O[C@@H]12)C(=O)O` (some centres not stated): the cell number change is -10.6%. Also, under setting [1], the AC50 was 7.31 µM [falling, partial curve, poor fit].

A word on the AC50: it is the midpoint of the concentration-response curve, whichever way the signal moves. High values mean activity only at high concentration, low ones activity at low concentration.
